Data as given in PubChem BioAssay AID1159593 (NIAID, 2016)

Purpose: 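TLR pathway parts governing NF-kappaB p65 translocation after LPS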
System: RAW264.7 macrophages of mouse, with reporters for p65 (GFP) and the Tnf promoter (mCherry)
Reagents: single siRNA against mouse genes
Timing: 48 to 72 hours after siRNA transfection, then LPS for 40 min
Challenge: LPS (Salmonella minnesota R595) for 40 min before fixation; dose not given
Read-out: 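Imaged nuclear over cytoplasmic GFP-p65 intensity after 40 min LPS, normalised per plate by median and MAD, robust z-score versus negative controls, mean of replicates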
Reading the numbers: p65 translocation z-score: higher = more nuclear NF-kappaB p65 after LPS
Active means: 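Activity score grows with absolute z: 25 beyond 1, 50 beyond 1.5, 75 beyond 2, 100 beyond 2.5; active calls here sit at about z 1.5 or more either way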
Calls: active = changed p65 translocation (either direction); inactive = no clear change
Shown is an unselected part of 756 deposited reagents. In the full data, 137 (18%) are marked active. 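Active means p65 translocation went either up or down; genes were judged on the median of six siRNAs, not single siRNAs.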 Unmarked entries are inactive. The numbers tell different reagents against one gene apart. The record does not give: the amount of reagent.

Irf3 (interferon regulatory factor 3) #1 | p65 translocation z-score: -1.13
Irf3 (interferon regulatory factor 3) #2 | p65 translocation z-score: 1.54 (active)
Irf3 (interferon regulatory factor 3) #3 | p65 translocation z-score: -2.11 (active)
Irf3 (interferon regulatory factor 3) #4 | p65 translocation z-score: 3.72 (active)
Irf3 (interferon regulatory factor 3) #5 | p65 translocation z-score: 0.723
Irf3 (interferon regulatory factor 3) #6 | p65 translocation z-score: 0.575
Mapk3 (mitogen-activated protein kinase 3) #1 | p65 translocation z-score: -1.64 (active)
Mapk3 (mitogen-activated protein kinase 3) #2 | p65 translocation z-score: 0.736
Mapk3 (mitogen-activated protein kinase 3) #3 | p65 translocation z-score: -0.228
Mapk3 (mitogen-activated protein kinase 3) #4 | p65 translocation z-score: 0.312
Mapk3 (mitogen-activated protein kinase 3) #5 | p65 translocation z-score: -0.484
Mapk3 (mitogen-activated protein kinase 3) #6 | p65 translocation z-score: -0.355
Ticam1 (TIR domain containing adaptor molecule 1) #1 | p65 translocation z-score: -2.05 (active)
Ticam1 (TIR domain containing adaptor molecule 1) #2 | p65 translocation z-score: -0.351
Ticam1 (TIR domain containing adaptor molecule 1) #3 | p65 translocation z-score: -0.946
Ticam1 (TIR domain containing adaptor molecule 1) #4 | p65 translocation z-score: 2.2 (active)
Ticam1 (TIR domain containing adaptor molecule 1) #5 | p65 translocation z-score: 0.0876
Ticam1 (TIR domain containing adaptor molecule 1) #6 | p65 translocation z-score: -0.615
Sigirr #1 | p65 translocation z-score: -2.05 (active)
Sigirr #2 | p65 translocation z-score: -2.56 (active)
Sigirr #3 | p65 translocation z-score: -0.878
Sigirr #4 | p65 translocation z-score: -1.51 (active)
Sigirr #5 | p65 translocation z-score: -1.03
Sigirr #6 | p65 translocation z-score: -0.692
Stat1 (signal transducer and activator of transcription 1) #1 | p65 translocation z-score: -0.102
Stat1 (signal transducer and activator of transcription 1) #2 | p65 translocation z-score: 0.984
Stat1 (signal transducer and activator of transcription 1) #3 | p65 translocation z-score: 0.289
Stat1 (signal transducer and activator of transcription 1) #4 | p65 translocation z-score: -1.23
Stat1 (signal transducer and activator of transcription 1) #5 | p65 translocation z-score: 0.148
Stat1 (signal transducer and activator of transcription 1) #6 | p65 translocation z-score: -0.718

The list goes on; the last 2 above are carried over.
Stat1 (signal transducer and activator of transcription 1) #5 | p65 translocation z-score: 0.148
Stat1 (signal transducer and activator of transcription 1) #6 | p65 translocation z-score: -0.718
Tirap #1 | p65 translocation z-score: -2.05 (active)
Tirap #2 | p65 translocation z-score: -0.64
Tirap #3 | p65 translocation z-score: -1.62 (active)
Tirap #4 | p65 translocation z-score: -3.13 (active)
Tirap #5 | p65 translocation z-score: -2.15 (active)
Tirap #6 | p65 translocation z-score: -2.46 (active)
Tollip (toll interacting protein) #1 | p65 translocation z-score: 0.799
Tollip (toll interacting protein) #2 | p65 translocation z-score: -1.17
Tollip (toll interacting protein) #3 | p65 translocation z-score: -2.55 (active)
Tollip (toll interacting protein) #4 | p65 translocation z-score: -0.667
Tollip (toll interacting protein) #5 | p65 translocation z-score: -0.51
Tollip (toll interacting protein) #6 | p65 translocation z-score: -1.1
Pik3cg #1 | p65 translocation z-score: -0.416
Pik3cg #2 | p65 translocation z-score: -1.96 (active)
Pik3cg #3 | p65 translocation z-score: -0.362
Pik3cg #4 | p65 translocation z-score: 1.17
Pik3cg #5 | p65 translocation z-score: -0.275
Pik3cg #6 | p65 translocation z-score: -1.84 (active)
